Assay results reported in PubChem BioAssay AID330 (DTP/NCI, 2004).
The list does not hold the whole screen: it is rich in T/C values a quarter to a half above the control, in often repeated tests (any T/C) and in doses without a T/C. Further doses and runs are listed elsewhere. T/C: endpoint of the treated group in % of that of the vehicle group. Some entries give survivors of the animals treated and no T/C: the source holds a T/C of zero for them, seemingly a mark for toxic or unscored doses. Some doses without a T/C left all or most animals alive at the check, yet need not have been tolerated: survival well below the control is almost never listed, so the zero probably covers shortened survival too. Counts of survivors are from the toxicity check (mostly the fifth day) where no day follows; animals may have died later. Schedules are NCI's codes, taken here to give the interval after Q, in days (D) or hours (H), and the number of doses after X. Some entries were tested several times; their values stand side by side, smallest first. Where survival is the endpoint, this PubChem deposit counts one and a half times the control or more as active, and values a quarter to a half above the control carry no call in these data; other NCI protocols may use other cut-offs. Some T/C values carry the count of animals alive at the toxicity check (mostly the fifth day); where none is given, no animal had died by that day.

Test system: P388 leukemia ip, CD2F1 mice, survival T/C
Assay: NCI In Vivo Anticancer Drug Screen. Data for tumor model P388 Leukemia (intraperitoneal) in CD2F1 (CDF1) mice
Conditions: T/C endpoint: median survival time, higher T/C = longer survival
[1] = dose: 3.13 mg/kg/injection, schedule: Q01DX009 (ip), vehicle: water

COC(=O)N1CCC(N)(C#N)CC1
survivor count (dose: 50.0 mg/kg/injection, schedule: Q04DX003 (ip), vehicle: Klucel (hydroxypropylcellulose) (HPC)): 1 of 6 | survivor count (dose: 65.5 mg/kg/injection, schedule: Q04DX003 (ip), vehicle: Klucel (hydroxypropylcellulose) (HPC)): 0 of 6 | survivor count (dose: 131.0 mg/kg/injection, schedule: Q04DX003 (ip), vehicle: Klucel (hydroxypropylcellulose) (HPC)): 0 of 6 | survivor count (dose: 262.0 mg/kg/injection, schedule: Q04DX003 (ip), vehicle: Klucel (hydroxypropylcellulose) (HPC)): 0 of 6

CCOC(=O)C(Br)CN1C(=O)c2ccccc2C1=O (stereo unspecified)
T/C (dose: 240.0 mg/kg/injection, schedule: Q01DX005 (ip), vehicle: saline with Tween-80): 132 % of control

CC(=O)OCC1(C)NC(=O)c2ccccc2O1 (stereo unspecified)
T/C (dose: 100.0 mg/kg/injection, schedule: Q01DX009 (ip), vehicle: saline with Tween-80): 135 % of control | T/C (dose: 200.0 mg/kg/injection, schedule: Q01DX009 (ip), vehicle: saline with Tween-80): 126 and 127 % of control

Ic1ncnc2c1ncn2C1CCCCO1 (stereo unspecified)
survivor count (dose: 50.0 mg/kg/injection, schedule: Q01DX009 (ip), vehicle: saline): 6 of 6

COc1ccc(Nc2c3ccccc3nc3ccccc23)cc1
T/C (dose: 25.0 mg/kg/injection, schedule: Q01DX009 (ip), vehicle: saline with Tween-80): 141 % of control

O=[N+]([O-])c1nc(Br)n[nH]1
survivor count (dose: 400.0 mg/kg/injection, schedule: Q04DX002 (ip), vehicle: water): 0 of 6

CC(=O)c1c(OCC(O)CN2CCN(C)CC2)cccc1OCC(O)CN1CCN(C)CC1 (stereo unspecified)
survivor count (dose: 50.0 mg/kg/injection, schedule: Q01DX005 (ip), vehicle: saline): 0 of 6 | survivor count (dose: 100.0 mg/kg/injection, schedule: Q01DX005 (ip), vehicle: saline): 0 of 6 | survivor count (dose: 200.0 mg/kg/injection, schedule: Q01DX005 (ip), vehicle: saline): 0 of 6

CCOC(=O)/C=C1\SC(C)(C)C1NC(=O)OCc1ccccc1 (stereo unspecified)
survivor count (dose: 120.0 mg/kg/injection, schedule: Q01DX005 (ip), vehicle: Klucel (hydroxypropylcellulose) (HPC)): 5 of 6 | survivor count (dose: 240.0 mg/kg/injection, schedule: Q01DX005 (ip), vehicle: Klucel (hydroxypropylcellulose) (HPC)): 5 of 6

O=NN(CCCl)C(=O)NC1CCC(=O)NC1=O (stereo unspecified)
T/C (dose: 4.0 mg/kg/injection, schedule: Q01DX001 (iv), vehicle: saline + alcohol): 136 % of control | T/C (dose: 8.0 mg/kg/injection, schedule: Q01DX001 (oral), vehicle: saline + alcohol): 146 % of control | T/C (dose: 8.0 mg/kg/injection, schedule: Q01DX005 (ip), vehicle: saline + alcohol): 135 % of control | survivor count (dose: 12.5 mg/kg/injection, schedule: Q01DX009 (ip), vehicle: saline with Tween-80): 6 of 6 | survivor count (dose: 16.0 mg/kg/injection, schedule: Q01DX005 (ip), vehicle: saline + alcohol): 5 of 6 | T/C (dose: 16.0 mg/kg/injection, schedule: Q01DX005 (iv), vehicle: saline + alcohol): 146 % of control | survivor count (dose: 20.0 mg/kg/injection, schedule: Q01DX001 (ip), vehicle: saline with Tween-80): 9 of 10 | survivor count (dose: 25.0 mg/kg/injection, schedule: Q04DX003 (ip), vehicle: saline with Tween-80): 6 of 6 | survivor count (dose: 32.0 mg/kg/injection, schedule: Q01DX001 (ip), vehicle: saline + alcohol): 5 of 6 | survivor count (dose: 32.0 mg/kg/injection, schedule: Q01DX001 (iv), vehicle: saline + alcohol): 6 of 6 | survivor count (dose: 32.0 mg/kg/injection, schedule: Q01DX001 (oral), vehicle: saline + alcohol): 6 of 6 | survivor count (dose: 32.0 mg/kg/injection, schedule: Q01DX005 (ip), vehicle: saline + alcohol): 6 of 6 | survivor count (dose: 32.0 mg/kg/injection, schedule: Q01DX005 (iv), vehicle: saline + alcohol): 5 of 6 | survivor count (dose: 32.0 mg/kg/injection, schedule: Q01DX005 (oral), vehicle: saline + alcohol): 6 of 6 | survivor count (dose: 35.0 mg/kg/injection, schedule: Q01DX001 (ip), vehicle: saline with Tween-80): 5 of 10 | survivor count (dose: 50.0 mg/kg/injection, schedule: Q04DX003 (ip), vehicle: saline with Tween-80): 5 of 6 | survivor count (dose: 64.0 mg/kg/injection, schedule: Q01DX001 (ip), vehicle: saline + alcohol): 6 of 6 | survivor count (dose: 64.0 mg/kg/injection, schedule: Q01DX001 (iv), vehicle: saline + alcohol): 5 of 6 | survivor count (dose: 64.0 mg/kg/injection, schedule: Q01DX001 (oral), vehicle: saline + alcohol): 5 of 6 | survivor count (dose: 64.0 mg/kg/injection, schedule: Q01DX005 (oral), vehicle: saline + alcohol): 6 of 6 | survivor count (dose: 128.0 mg/kg/injection, schedule: Q01DX001 (oral), vehicle: saline + alcohol): 3 of 6

CCCOc1cccc2c1C(=O)c1c(O)c3c(c(O)c1C2=O)C[C@@](O)(C(C)=O)C[C@@H]3OC1CC(N)C(O)C(C)O1 (stereo partly specified)
T/C (dose: 25.0 mg/kg/injection, schedule: Q04DX003 (ip), vehicle: water): 142 % of control

C=CC(C)(C)c1[nH]c2ccccc2c1CC1NC(=O)C(C)NC1=O (stereo unspecified)
survivor count (dose: 25.0 mg/kg/injection, schedule: Q01DX009 (ip), vehicle: Klucel (hydroxypropylcellulose) (HPC)): 6 of 6

CC1=Nc2ccc([N+](=O)[O-])cc2N=C(C)C1
survivor count (dose: 400.0 mg/kg/injection, schedule: Q01DX009 (ip), vehicle: saline with Tween-80): 5 of 6

CNC(=O)OCc1c(COC(=O)NC)c(-c2ccc(OC)cc2)n(C)c1C
T/C (dose: 6.25 mg/kg/injection, schedule: Q01DX009 (ip), vehicle: distilled water + Tween-80): 135 % of control | T/C (dose: 12.5 mg/kg/injection, schedule: Q01DX009 (ip), vehicle: distilled water + Tween-80): 135 and 138 % of control | T/C (dose: 25.0 mg/kg/injection, schedule: Q01DX009 (ip), vehicle: distilled water + Tween-80): 141 and 145 % of control | survivor count (dose: 100.0 mg/kg/injection, schedule: Q01DX009 (ip), vehicle: distilled water + Tween-80): 4 of 6 and 5 of 6 | survivor count (dose: 200.0 mg/kg/injection, schedule: Q01DX009 (ip), vehicle: distilled water + Tween-80): 3 of 6

CCOC(=O)c1ccc(NC(=O)SC2=NCCS2)cc1
survivor count (dose: 200.0 mg/kg/injection, schedule: Q01DX009 (ip), vehicle: Klucel (hydroxypropylcellulose) (HPC)): 2 of 6

COC(=O)C1(OC(=O)CCC(=O)O)C(=O)NC2=C1C(=O)c1ccccc1C2=O (stereo unspecified)
T/C (dose: 100.0 mg/kg/injection, schedule: Q01DX005 (ip), vehicle: saline with Tween-80): 126 and 129 % of control | survivor count (dose: 400.0 mg/kg/injection, schedule: Q01DX005 (ip), vehicle: saline with Tween-80): 3 of 6

O=C1N[C@@H]([C@H]2CC[C@H](Cl)CN2)C(=O)N[C@H]1[C@H]1CC[C@H](Cl)CN1
T/C (dose: 0.25 mg/kg/injection, schedule: Q01DX005 (ip), vehicle: saline): 134 % of control [5 of 6 alive] | T/C (dose: 0.5 mg/kg/injection, schedule: Q01DX005 (ip), vehicle: saline): 146 % of control | T/C (dose: 0.5 mg/kg/injection, schedule: Q01DX005 (oral), vehicle: saline): 127 % of control | T/C (dose: 1.0 mg/kg/injection, schedule: Q01DX005 (oral), vehicle: saline): 127 % of control [5 of 6 alive] | T/C [1]: 135 % of control | survivor count [1]: 6 of 6 | survivor count (dose: 4.0 mg/kg/injection, schedule: Q01DX005 (oral), vehicle: saline): 6 of 6 | survivor count (dose: 6.25 mg/kg/injection, schedule: Q01DX009 (ip), vehicle: water): 6 of 6 | T/C (dose: 8.0 mg/kg/injection, schedule: Q01DX001 (ip), vehicle: saline): 147 % of control | survivor count (dose: 8.0 mg/kg/injection, schedule: Q01DX005 (oral), vehicle: saline): 3 of 6

O=C(O)CN(CC(=O)O)Cc1cc2c(c(O)c1O)C(=O)c1ccccc1C2=O
survivor count (dose: 50.0 mg/kg/injection, schedule: Q01DX009 (ip), vehicle: saline with Tween-80): 6 of 6

CN1CCc2[nH]c3ccccc3c2C1
survivor count (dose: 400.0 mg/kg/injection, schedule: Q04DX002 (ip), vehicle: Klucel (hydroxypropylcellulose) (HPC)): 0 of 6

CCC(=O)OC(C)COc1ccc(C(C)(C)C)cc1 (stereo unspecified)
T/C (dose: 600.0 mg/kg/injection, schedule: Q01DX009 (ip), vehicle: saline with Tween-80): 125 % of control

CC1=CCC2CN(CCN(C)C)CC2C1 (stereo unspecified)
survivor count (dose: 200.0 mg/kg/injection, schedule: Q01DX005 (ip), vehicle: saline with Tween-80): 1 of 6
